These are yes or no findings as the source states them, for the method shown. Some binding calls cover weakened binding; strength is not graded here.
Target: Human basic FGF (recombinant, produced in yeast) (human) (UniProt P09038)
Assay: radioreceptor assay on BHK cells with 125I-basic FGF

Amino acid sequences for entries named in this document (tags omitted). A change or cut given only in a name is not applied to a line headed by its entry. Residues count along the entry.
UniProt P09038, residues 134-288: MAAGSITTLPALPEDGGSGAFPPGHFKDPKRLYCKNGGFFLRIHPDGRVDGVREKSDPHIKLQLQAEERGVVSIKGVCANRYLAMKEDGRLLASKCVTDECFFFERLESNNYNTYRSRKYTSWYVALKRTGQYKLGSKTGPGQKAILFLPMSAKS
UniProt P11362: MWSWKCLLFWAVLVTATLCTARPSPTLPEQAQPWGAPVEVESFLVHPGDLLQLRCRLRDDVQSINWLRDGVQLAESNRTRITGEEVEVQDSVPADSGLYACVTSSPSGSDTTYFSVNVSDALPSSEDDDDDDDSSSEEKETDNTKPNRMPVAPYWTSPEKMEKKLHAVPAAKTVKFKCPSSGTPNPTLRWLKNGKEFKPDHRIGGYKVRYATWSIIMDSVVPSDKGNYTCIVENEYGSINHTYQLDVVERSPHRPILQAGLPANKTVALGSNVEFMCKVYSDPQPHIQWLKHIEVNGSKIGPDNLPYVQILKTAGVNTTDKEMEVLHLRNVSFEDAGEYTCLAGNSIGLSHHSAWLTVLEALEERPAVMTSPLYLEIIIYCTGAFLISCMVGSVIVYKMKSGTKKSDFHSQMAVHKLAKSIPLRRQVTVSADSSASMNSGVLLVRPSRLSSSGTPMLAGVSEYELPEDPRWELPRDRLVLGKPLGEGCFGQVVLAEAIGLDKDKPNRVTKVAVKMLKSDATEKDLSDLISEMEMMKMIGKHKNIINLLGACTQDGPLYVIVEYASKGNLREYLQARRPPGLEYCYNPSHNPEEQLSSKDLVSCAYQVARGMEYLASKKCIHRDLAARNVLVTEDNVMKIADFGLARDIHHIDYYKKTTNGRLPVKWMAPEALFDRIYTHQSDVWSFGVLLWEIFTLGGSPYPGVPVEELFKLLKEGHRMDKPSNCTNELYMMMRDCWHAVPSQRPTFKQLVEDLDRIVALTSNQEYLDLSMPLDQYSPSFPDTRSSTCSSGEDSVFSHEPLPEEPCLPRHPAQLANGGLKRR

EC-FGF receptor (extracellular region of the human FGF receptor flg 5, amino acids 1-374, expressed in baculovirus-infected Sf9 cells) (from UniProt P11362 22-376)
binding: binds

— patent publication US6844168
